# Test results published in the supplement of paper PMC8728848.
# Some of the results follow.
# B1: Blon2355mut (Bifidobacterium longum) (protein)
# chain: MVQEPTLEWHVIPEPTNVEPLVGTCSLPLSGTVVEQRGADDAEAVFARQLVDDIKRVCGGRWQVASGEVQREVTLRTSPSLDDWSYVLEVSPDGVVITGSGFEGVRDGVQTLRQIIRQIGLTIPCMVIRDRPAFSTRGYYLDVTRGRVPSMAWLKSWVDRLCFYKYNQFQLYIEHTFQFNGLSEVWRGADPLTSSDILELDSYCAARGIELVPSVSTFGHHYTALRTRQLRDLGEFPEDADRPFSLIERMTHHTLNITDERSYEFSTSLIDELMPLFRSRKFNICANETFDLGKGRSKQESAKRGVGAMYADFVERLCRHVDDRGHDVMVWADVALEHPEIIDTLPKNITWLNWQYEPNVDDGTTAALADAGATQMVCPAVWCWNALIPRIDDAWNNITRMARHGRAHDVSGMLVTDWGDFGHVNDPRMSVPGMIFGAQQSWNPDAELSEVDMLSRISTIEYGDHTGSVVGALRGASAKGGFSWSDLVTYLELDDGRGGCNTEIVRVMGCLEAYRNDLPQSGQARLADARVSMLRTLRDSILAGRELNGKLDDAAKDITQLLRVAGDPSSAAVWSLAIDGQRLLNRVGLALLAAHGVVRQDEAGIDAAKLADELECWTEQYSRLWHEVSRQSELARIQHVVWRAADVLRSI
# Legend:
# Assay in all cases: glycan array binding signal (z-score within array); higher = stronger binding
# Conditions in all cases: glycan notation: IUPAC condensed, linker removed
# [1] = molecular target: Gal(a1-3)Gal(b1-4)GlcNAc(b1-2)Man(a1-3)[Gal(a1-3)Gal(b1-4)GlcNAc(b1-2)Man(a1-6)]Man(b1-4)GlcNAc(b1-4)GlcNAc
# Procedure, shortened: (§1)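 Arrays were curated from the Consortium for Functional Glycomics database, 3228 in total, and kept only where the protein sequence was available. Binding is expressed as a within-array Z-score. This score was averaged across arrays of the same protein sequence at different concentrations or buffers and across linkers, and negative values can be read as non-binding.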
# [2] = molecular target: Gal(a1-3)Gal(b1-4)GlcNAc(b1-3)GalNAc
# Procedure, shortened: as §1
# [3] = molecular target: Gal(a1-3)Gal(b1-4)GlcNAc(b1-6)GalNAc
# Procedure, shortened: as §1
# [4] = molecular target: Gal(a1-3)Gal(b1-4)[Fuc(a1-3)]GlcNAc
# Procedure, shortened: as §1
# [5] = molecular target: Gal(a1-3)Gal(b1-4)[Fuc(a1-3)]GlcNAc(b1-2)Man(a1-3)[Gal(a1-3)Gal(b1-4)[Fuc(a1-3)]GlcNAc(b1-2)Man(a1-6)]Man(b1-4)GlcNAc(b1-4)GlcNAc
# Procedure, shortened: as §1
# Gal(a1-3)GalNAc = molecular target: Gal(a1-3)GalNAc
# Procedure, shortened: as §1
# [6] = molecular target: Gal(a1-3)[Gal(a1-4)]Gal(b1-4)GlcNAc
# Procedure, shortened: as §1
# [7] = molecular target: Gal(a1-4)Gal(b1-3)GlcNAc(b1-2)Man(a1-3)[Gal(a1-4)Gal(b1-3)GlcNAc(b1-2)Man(a1-6)]Man(b1-4)GlcNAc(b1-4)GlcNAc
# Procedure, shortened: as §1
# Gal(a1-4)Gal(b1-4)Glc = molecular target: Gal(a1-4)Gal(b1-4)Glc
# Procedure, shortened: as §1
# Gal(a1-4)Gal(b1-4)GlcNAc = molecular target: Gal(a1-4)Gal(b1-4)GlcNAc
# Procedure, shortened: as §1
# [8] = molecular target: Gal(a1-4)Gal(b1-4)GlcNAc(b1-2)Man(a1-3)[Gal(a1-4)Gal(b1-4)GlcNAc(b1-2)Man(a1-6)]Man(b1-4)GlcNAc(b1-4)GlcNAc
# Procedure, shortened: as §1
# [9] = molecular target: Gal(a1-4)Gal(b1-4)GlcNAc(b1-3)Gal(b1-4)Glc
# Procedure, shortened: as §1
# Gal(a1-4)GlcNAc = molecular target: Gal(a1-4)GlcNAc
# Procedure, shortened: as §1
# Gal(a1-6)Glc = molecular target: Gal(a1-6)Glc
# Procedure, shortened: as §1
# Gal(b1-2)Gal = molecular target: Gal(b1-2)Gal
# Procedure, shortened: as §1
# Gal(b1-3)Gal = molecular target: Gal(b1-3)Gal
# Procedure, shortened: as §1
# Gal(b1-3)Gal(b1-4)GlcNAc = molecular target: Gal(b1-3)Gal(b1-4)GlcNAc
# Procedure, shortened: as §1
# Gal(b1-3)GalNAc = molecular target: Gal(b1-3)GalNAc
# Procedure, shortened: as §1
# [10] = molecular target: Gal(b1-3)GalNAc(a1-3)[Fuc(a1-2)]Gal(b1-4)Glc
# Procedure, shortened: as §1
# [11] = molecular target: Gal(b1-3)GalNAc(a1-3)[Fuc(a1-2)]Gal(b1-4)GlcNAc
# Procedure, shortened: as §1
# Gal(b1-3)GalNAc(b1-3)Gal = molecular target: Gal(b1-3)GalNAc(b1-3)Gal
# Procedure, shortened: as §1
# [12] = molecular target: Gal(b1-3)GalNAc(b1-3)Gal(a1-4)Gal(b1-4)Glc
# Procedure, shortened: as §1
# [13] = molecular target: Gal(b1-3)GalNAc(b1-4)Gal(b1-4)Glc
# Procedure, shortened: as §1
# [14] = molecular target: Gal(b1-3)GalNAc(b1-4)[Neu5Ac(a2-3)]Gal(b1-4)Glc
# Procedure, shortened: as §1
# Gal(b1-3)GlcNAc = molecular target: Gal(b1-3)GlcNAc
# Procedure, shortened: as §1
# [15] = molecular target: Gal(b1-3)GlcNAc(a1-3)Gal(b1-4)GlcNAc
# Procedure, shortened: as §1
# [16] = molecular target: Gal(b1-3)GlcNAc(a1-6)Gal(b1-4)GlcNAc
# Procedure, shortened: as §1
# Gal(b1-3)GlcNAc(b1-2)Man = molecular target: Gal(b1-3)GlcNAc(b1-2)Man
# Procedure, shortened: as §1
# [17] = molecular target: Gal(b1-3)GlcNAc(b1-2)Man(a1-3)[Gal(b1-3)GlcNAc(b1-2)Man(a1-6)]Man(b1-4)GlcNAc(b1-4)GlcNAc
# Procedure, shortened: as §1
# [18] = molecular target: Gal(b1-3)GlcNAc(b1-2)Man(a1-3)[Gal(b1-3)GlcNAc(b1-2)Man(a1-6)]Man(b1-4)GlcNAc(b1-4)[Fuc(a1-6)]GlcNAc
# Procedure, shortened: as §1
binder,measurement,setting,value
B1,glycan array binding signal (z-score),[1],-0.325
same,glycan array binding signal (z-score),[2],-0.289
same,glycan array binding signal (z-score),[3],-0.298
same,glycan array binding signal (z-score),[4],-0.344
same,glycan array binding signal (z-score),[5],1.73
same,glycan array binding signal (z-score),Gal(a1-3)GalNAc,0.527
same,glycan array binding signal (z-score),[6],3.31
same,glycan array binding signal (z-score),[7],-0.431
same,glycan array binding signal (z-score),Gal(a1-4)Gal(b1-4)Glc,2.13
same,glycan array binding signal (z-score),Gal(a1-4)Gal(b1-4)GlcNAc,1.36
same,glycan array binding signal (z-score),[8],-1.08
same,glycan array binding signal (z-score),[9],-0.527
same,glycan array binding signal (z-score),Gal(a1-4)GlcNAc,-0.832
same,glycan array binding signal (z-score),Gal(a1-6)Glc,-0.671
same,glycan array binding signal (z-score),Gal(b1-2)Gal,0.594
same,glycan array binding signal (z-score),Gal(b1-3)Gal,-0.445
same,glycan array binding signal (z-score),Gal(b1-3)Gal(b1-4)GlcNAc,1.46
same,glycan array binding signal (z-score),Gal(b1-3)GalNAc,0.03
same,glycan array binding signal (z-score),[10],-1.53
same,glycan array binding signal (z-score),[11],-1.37
same,glycan array binding signal (z-score),Gal(b1-3)GalNAc(b1-3)Gal,0.657
same,glycan array binding signal (z-score),[12],0.808
same,glycan array binding signal (z-score),[13],0.247
same,glycan array binding signal (z-score),[14],1.42
same,glycan array binding signal (z-score),Gal(b1-3)GlcNAc,-0.022
same,glycan array binding signal (z-score),[15],-1.09
same,glycan array binding signal (z-score),[16],-0.504
same,glycan array binding signal (z-score),Gal(b1-3)GlcNAc(b1-2)Man,0.043
same,glycan array binding signal (z-score),[17],0.075
same,glycan array binding signal (z-score),[18],-0.089

# Rewritten with bars between the fields: entries from further up
binder | measurement | setting | value
B1 | glycan array binding signal (z-score) | Gal(b1-3)Gal | -0.445
same | glycan array binding signal (z-score) | Gal(b1-3)Gal(b1-4)GlcNAc | 1.46
